PubChem BioAssay AID743121 | NCATS – 2013

Assay: 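Partners whose loss is lethal together with topoisomerase I blockade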 (primary screen)
Cell system: MDA-MB-231 cells, a human breast cancer line
Reagents: single siRNA against human genes, 20 nM siRNA (0.8 pmol per well)
Timing: 120 h (drug added 48 h after transfection, read 72 h later)
Conditions: camptothecin 20 nM (about EC30) for 72 h; vehicle 0.1% DMSO in parallel plates
Read-out: 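CellTiter-Glo ATP signal, scaled to control siRNA as percent viability; sensitisation given as log2 of untreated divided by camptothecin-treated viability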
Reading the numbers: log2 vehicle/camptothecin viability: higher = stronger sensitisation to camptothecin; viability with camptothecin and viability without drug: higher = more viable cells
Active means: 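Active genes have an RSA gene-level p-value below 0.001, computed from the ratios of their separate siRNAs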
The deposit covers about 26,000 reagents; shown is an unselected part. 167 of them (0.63%) were called active. 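Calls are per gene from RSA p-values that are not deposited; an individual active-marked siRNA can sensitise only weakly.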 Unmarked entries are inactive. Reagents against one gene are numbered here.

gene symbol,reagent no.,log2 vehicle/camptothecin viability,viability with camptothecin (% of control),viability without drug (% of control)
CDK3 (cyclin dependent kinase 3),1,0.373,57.9,75
CDK3 (cyclin dependent kinase 3),2,-0.226,41.5,35.5
CDK3 (cyclin dependent kinase 3),3,0.818,50.8,89.5
CDK3 (cyclin dependent kinase 3),4,0.0754,105,111
DOCK2 (dedicator of cytokinesis 2),1,-0.388,110,84.2
DOCK2 (dedicator of cytokinesis 2),2,-0.406,77.3,58.4
DOCK2 (dedicator of cytokinesis 2),3,0.0172,37.9,38.4
DOCK2 (dedicator of cytokinesis 2),4,-0.0658,99.4,95
GTF2H2 (general transcription factor IIH subunit 2),1,-0.116,107,98.3
GTF2H2 (general transcription factor IIH subunit 2),2,-0.363,45.3,35.2
GTF2H2 (general transcription factor IIH subunit 2),3,-0.253,84.1,70.6
ROR2 (ROR family WNT receptor 2),1,-0.213,58.9,50.9
ROR2 (ROR family WNT receptor 2),2,0.0542,66.8,69.3
ROR2 (ROR family WNT receptor 2),3,-0.0755,75.6,71.8
ROR2 (ROR family WNT receptor 2),4,-0.05,35,33.8
CHRM4 (cholinergic receptor muscarinic 4),1,-0.186,99.1,87.1
CHRM4 (cholinergic receptor muscarinic 4),2,-0.485,57.2,40.9
CHRM4 (cholinergic receptor muscarinic 4),3,-0.539,60.8,41.8
CHRM4 (cholinergic receptor muscarinic 4),4,-0.078,105,99.6
CRLF3 (cytokine receptor like factor 3),1,-0.143,106,95.6
CRLF3 (cytokine receptor like factor 3),2,-0.364,46.6,36.2
CRLF3 (cytokine receptor like factor 3),3,-0.347,107,83.9
AJAP1 (adherens junctions associated protein 1),1,0.595,23.7,35.9
AJAP1 (adherens junctions associated protein 1),2,-0.227,94.6,80.8
AJAP1 (adherens junctions associated protein 1),3,-0.0904,113,106
AJAP1 (adherens junctions associated protein 1),4,-0.158,110,98.3
AJAP1 (adherens junctions associated protein 1),5,-0.0879,112,106
AJAP1 (adherens junctions associated protein 1),6,-0.336,104,82.5
AJAP1 (adherens junctions associated protein 1),7,-0.225,101,86.2
AJAP1 (adherens junctions associated protein 1),8,-0.393,81.9,62.4
CLCN5 (Cl-/H+ antiporter 5),1,-0.742,76.7,45.9
CLCN5 (Cl-/H+ antiporter 5),2,-0.304,61.7,49.9
CLCN5 (Cl-/H+ antiporter 5),3,-0.202,88.2,76.7
NRXN1 (neurexin 1),1,-0.537,61.8,42.6
NRXN1 (neurexin 1),2,-0.17,57.2,50.8
NRXN1 (neurexin 1),3,0.475,53.8,74.8
NRXN1 (neurexin 1),4,-0.00571,115,115
CPA2 (carboxypeptidase A2),1,-0.154,44.6,40.1
CPA2 (carboxypeptidase A2),2,-0.0869,74.9,70.5
CPA2 (carboxypeptidase A2),3,-0.17,81.2,72.2
CPA2 (carboxypeptidase A2),4,-0.24,94.3,79.8
PRKD3 (protein kinase D3),1,-0.348,83.6,65.7
PRKD3 (protein kinase D3),2,0.318,71.8,89.6
PRKD3 (protein kinase D3),3,0.194,66.9,76.5
PRKD3 (protein kinase D3),4,-0.0701,82,78.1

Quoted from the entries so far, 11 entries:
gene symbol,reagent no.,log2 vehicle/camptothecin viability,viability with camptothecin (% of control),viability without drug (% of control)
NRXN1 (neurexin 1),1,-0.537,61.8,42.6
NRXN1 (neurexin 1),2,-0.17,57.2,50.8
NRXN1 (neurexin 1),3,0.475,53.8,74.8
NRXN1 (neurexin 1),4,-0.00571,115,115
CPA2 (carboxypeptidase A2),1,-0.154,44.6,40.1
CPA2 (carboxypeptidase A2),2,-0.0869,74.9,70.5
CPA2 (carboxypeptidase A2),3,-0.17,81.2,72.2
CPA2 (carboxypeptidase A2),4,-0.24,94.3,79.8
PRKD3 (protein kinase D3),1,-0.348,83.6,65.7
PRKD3 (protein kinase D3),2,0.318,71.8,89.6
PRKD3 (protein kinase D3),3,0.194,66.9,76.5

The list goes on.
gene symbol,reagent no.,log2 vehicle/camptothecin viability,viability with camptothecin (% of control),viability without drug (% of control)
INSIG1 (insulin induced gene 1),1,-0.228,86.7,74
INSIG1 (insulin induced gene 1),2,-0.487,83.1,59.3
INSIG1 (insulin induced gene 1),3,0.854,37.9,68.6
INSIG1 (insulin induced gene 1),4,-0.122,117,107
"PKDCC (protein kinase domain containing, cytoplasmic)",1,-0.011,65.2,64.7
"PKDCC (protein kinase domain containing, cytoplasmic)",2,-0.241,114,96.1
"PKDCC (protein kinase domain containing, cytoplasmic)",3,0.133,38,41.7
"PKDCC (protein kinase domain containing, cytoplasmic)",4,-0.268,98,81.4
INTS5 (integrator complex subunit 5),1,-0.557,93.3,63.4
INTS5 (integrator complex subunit 5),2,-0.0028,86.5,86.4
INTS5 (integrator complex subunit 5),3,-0.402,64.2,48.5
INTS5 (integrator complex subunit 5),4,-0.309,40.8,32.9
NCOA7 (nuclear receptor coactivator 7),1,-0.0259,102,99.9
NCOA7 (nuclear receptor coactivator 7),2,-0.154,35.1,31.5
NCOA7 (nuclear receptor coactivator 7),3,-0.0924,44.6,41.8
NCOA7 (nuclear receptor coactivator 7),4,-0.0557,106,102
CHIC2 (cysteine rich hydrophobic domain 2),1,0.0523,93.2,96.7
CHIC2 (cysteine rich hydrophobic domain 2),2,-0.313,86.6,69.7
CHIC2 (cysteine rich hydrophobic domain 2),3,0.0434,52.8,54.4
CHIC2 (cysteine rich hydrophobic domain 2),4,-0.34,93.3,73.7
STAT3 (signal transducer and activator of transcription 3),1,-0.237,98.9,83.9
STAT3 (signal transducer and activator of transcription 3),2,-0.00388,61.7,61.5
STAT3 (signal transducer and activator of transcription 3),3,-0.316,106,85.5
STAT3 (signal transducer and activator of transcription 3),4,-0.261,101,84.3
PPBP (pro-platelet basic protein),1,-0.38,50.1,38.5
PPBP (pro-platelet basic protein),2,-0.516,74.5,52.1
PPBP (pro-platelet basic protein),3,-0.124,94.8,87
PPBP (pro-platelet basic protein),4,-0.242,106,89.4
TBCEL (tubulin folding cofactor E like),1,-0.242,111,93.6
TBCEL (tubulin folding cofactor E like),2,-0.335,73.5,58.3
TBCEL (tubulin folding cofactor E like),3,-0.0242,98.1,96.4
TBCEL (tubulin folding cofactor E like),4,-0.243,28.8,24.3
RNGTT (RNA guanylyltransferase and 5'-phosphatase),1,-0.296,71.5,58.2
RNGTT (RNA guanylyltransferase and 5'-phosphatase),2,-0.547,81.7,56
RNGTT (RNA guanylyltransferase and 5'-phosphatase),3,-0.146,33.9,30.6
RNGTT (RNA guanylyltransferase and 5'-phosphatase),4,-0.0629,86.1,82.4
IMPDH2 (inosine monophosphate dehydrogenase 2),1,-0.0414,64.5,62.7
IMPDH2 (inosine monophosphate dehydrogenase 2),2,-0.13,102,93.5
IMPDH2 (inosine monophosphate dehydrogenase 2),3,-0.371,114,88.5
TST (thiosulfate sulfurtransferase),1,-0.445,81.7,60
TST (thiosulfate sulfurtransferase),2,-0.151,70.4,63.4
TST (thiosulfate sulfurtransferase),3,-0.341,101,79.6
TST (thiosulfate sulfurtransferase),4,0.667,54.2,86.1
